Record: PubChem BioAssay AID686937 (Drosophila RNAi Screening Center, 2013)
Purpose: 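Genes whose loss weakens secretory pathway function in fly cells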 (primary screen). Cells: Drosophila S2 cells expressing secreted horseradish peroxidase. Knock-down reagent: long dsRNA against Drosophila genes. Timing: about 5.5 days (5 days dsRNA, then 12 h reporter induction). Challenge: reporter expression induced after 5 days of dsRNA, read 12 h later; inducer not stated. Read-out: 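Chemiluminescent measurement of peroxidase in the medium 12 h after reporter induction, following 5 days of dsRNA, given as a z-score per plate; higher means more secretion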. Reading the numbers: z-score: higher = more reporter secreted into medium.
The screen tested about 23,000 reagents; below is an unselected part of those with a known target gene and a result. 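Reduced-secretion tags in replicate 1 do not always agree with the z-scores; no criterion for assigning the tags was given.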 Reagents against one gene are numbered here. A plus sign joins genes that one reagent is predicted to hit. Further read-outs or replicates are left out here. No sequences are given here. Not stated in the record: the amount of reagent.

target gene	reagent	z-score, replicate 1
CG12766 (GeneID 38462)	1	0.12
CG33796 (GeneID 3771914)	1	0.08
Rab8 (GeneID 40168)	1	0.56
CG3356 (GeneID 37876)	1	0.53
Rox8 (GeneID 42848)	1	0.14
ksh (GeneID 50363)	1	-0.67
CG5347 (GeneID 32403)	1	0.39
Pat1 (GeneID 31593)	1	0.43
CecB (GeneID 43598)	1	0.69
CG31178 (GeneID 42575)	1	0.23
upSET (GeneID 39551)	1	0.09
CG10283 (GeneID 35102)	1	0.39
CR30374 (GeneID 10178922)	1	-0.42
CR34254 (GeneID 5740610)	1	-0.65
Ip259 (GeneID 34419)	1	-0.08
Drsl6 (GeneID 38416)	1	0.41
CG2186 (GeneID 32017)	1	0.27
ND-PDSW (GeneID 44228)	1	0.01
Nep1 (GeneID 31547)	1	0.38
Nep1 (GeneID 31547)	2	-1.65
twin (GeneID 42880)	1	0.2
twin (GeneID 42880)	2	0.37
twin (GeneID 42880)	3	1.16
Sap30 (GeneID 32664)	1	0.08
AP-1-2beta (GeneID 32987)	1	-1.58
Sh3beta (GeneID 38820)	1	0.53
Sh3beta (GeneID 38820)	2	-0.04
Hinfp (GeneID 47718)	1	0.34
tej (GeneID 36590)	1	0.21

Reformatted: entries from further up
target gene | reagent | z-score, replicate 1
CR30374 (GeneID 10178922) | 1 | -0.42
CR34254 (GeneID 5740610) | 1 | -0.65
Ip259 (GeneID 34419) | 1 | -0.08
Drsl6 (GeneID 38416) | 1 | 0.41
CG2186 (GeneID 32017) | 1 | 0.27
ND-PDSW (GeneID 44228) | 1 | 0.01
Nep1 (GeneID 31547) | 1 | 0.38
Nep1 (GeneID 31547) | 2 | -1.65
twin (GeneID 42880) | 1 | 0.2
twin (GeneID 42880) | 2 | 0.37
twin (GeneID 42880) | 3 | 1.16
Sap30 (GeneID 32664) | 1 | 0.08
AP-1-2beta (GeneID 32987) | 1 | -1.58

Continued.
target gene	reagent	z-score, replicate 1
PIG-X (GeneID 246580)	1	-2.16
vig2 (GeneID 43016)	1	0.22
ras (GeneID 43873)	1	0.16
COX3 (retired record) (GeneID 192471)	1	0.43
norpA (GeneID 31376)	1	0.02
CG15185 (GeneID 40798)	1	0.18
CG10581 (GeneID 40326)	1	0.4
CG3402 (GeneID 38077)	1	0.22
SMC6 (GeneID 42876)	1	0.18
CG3589 (GeneID 37966)	1	0.19
Osi22 (GeneID 41632)	1	0.5
CG30172 (GeneID 246496)	1	0.17
CG4360 (GeneID 42413)	1	0.27
Sos (GeneID 34790)	1	-1.72
CG7196 (retired record) (GeneID 34057)	1	0.17
CG7196 (retired record) (GeneID 34057)	2	0.36
Phyhd1 (GeneID 41275)	1	0.52
CG34026 (GeneID 3885569)	1	0.05
Rab27 (GeneID 31103)	1	0.25
CG9837 (GeneID 41057)	1	0.09
CG12133 (GeneID 36036)	1	0.3
Rpt3 (GeneID 32047)	1	-4.61
PIG-C (GeneID 38410)	1	0.32
pk (GeneID 45343)	1	0.46
pk (GeneID 45343)	2	0.55
pk (GeneID 45343)	3	-0.63
v (GeneID 32026)	1	0.39
RpL39 (GeneID 37849)	1	-2.71
Optix (GeneID 44108)	1	0.47
Optix (GeneID 44108)	2	0.45
Optix (GeneID 44108)	3	-0.12
GluRIIB (GeneID 33789)	1	-0.68
BomBc3 (GeneID 50055)	1	0.23
Fibp (GeneID 40163)	1	0.36
CR43670 + CR43671 + CR43669	1	0.43
CR43670 + CR43671 + CR43669	2	0.29
pyx (GeneID 38037)	1	0.32
pyx (GeneID 38037)	2	-0.75
Sb (GeneID 41958)	1	0.59
Mkk4 (GeneID 41020)	1	0.27
CG6073 (GeneID 43180)	1	0.15
CG6073 (GeneID 43180)	2	0.31
CG34316 + asRNA:CR43471	1	0.41
CG12693 (GeneID 31375)	1	0.2
halo (GeneID 33334)	1	0.15
bark (GeneID 33604)	1	0.35
CG10814 (GeneID 36481)	1	0.24
CG30429 (GeneID 246609)	1	0.45
dmpd (GeneID 36061)	1	0.28
HDAC1 (GeneID 38565)	1	-0.29
CG33552 (GeneID 3346220)	1	0.22
CG43183 (GeneID 12798381)	1	0.34
CG31259 (GeneID 41010)	1	0.08
